Some of the results follow. Shown are side measurements of this screen, not its main read-out; they come without a call. The list favours compounds with an active or inconclusive main result. The note in brackets gives the kind of curve behind each potency; many fits are weak.
Assay: qHTS Assay for Lipid Storage Modulators in Drosophila S3 Cells;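 as to cell number change: cells counted by Cell Tracker Red CMTPX staining in the red channel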
Conditions: BODIPY lipid droplet fluorescence, 18-24 h; for cell number change: measured here: cell count max response, cells fed with added oleic acid
Summary of the method: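 Drosophila S3 cells loaded with oleic acid (400 uM, as added) and compounds at several concentrations; lipid droplets imaged by 488-nm laser-scanning cytometry, 500–530 nm intensity and object ratio to cell channel. Percent activity normalized to 20 uM Triacsin C.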

[1] = measured here: cell number channel AC50, cells fed with added oleic acid
[2] = measured here: lipid fluorescence (Fed channel) AC50, cells fed with added oleic acid

Compound | cell number change | AC50 [1] | AC50 [2]
CCN1CCCC1CNC(=O)Cn1cnc2ccc(S(=O)(=O)N3CCC(C)CC3)cc2c1=O (stereo not given) | -60.1% | 23.1 µM [falling, single point] | 
COc1ccc(Cl)c(OC)c1C(=O)NC(=O)Nc1c(F)cc(F)cc1F | -2.19% |  | 0.517 µM [falling, single point]
Cc1c(NS(=O)(=O)CC23CCC(CC2=O)C3(C)C)c(=O)n(-c2ccccc2)n1C (stereo not given) | 43.5% | 29.1 µM [rising, single point] | 2.91 µM [rising, full curve, poor fit]
CCn1c(SCC(=O)NC2CCCCC2C)nnc1-c1ccc(OC)cc1 (stereo not given) | -7.99% |  | 
CCSc1nc2c(c(=O)[nH]1)C(c1ccc(C)cc1)C1=C(CCCC1=O)N2 (stereo not given) | -9.25% |  | 0.517 µM [falling, single point]
C=C(C)CNC(=S)NNC(=O)CCn1c2ccccc2c2ccccc21 | -4.6% | 0.291 µM [falling, partial curve, poor fit] | 
CC(NC(=O)c1ccccc1F)c1nnc(SCC(=O)NC2CCCCC2)n1C (stereo not given) |  |  | 0.58 µM [falling, single point]
Cc1ccc(OCC(=O)c2c(O)c3ccccc3oc2=O)cc1C | 3.57% |  | 
O=C(O)c1ccc(Sc2nnnn2-c2ccccc2)c([N+](=O)[O-])c1 | -29.3% |  | 4.11 µM [falling, single point]
COCCN(C(=O)CSc1n[nH]c(-c2ccccc2)n1)c1c(N)n(Cc2ccccc2)c(=O)[nH]c1=O | -5.13% |  | 5.17 µM [rising, single point]
CCCCN(C(=O)CSc1nnc(Nc2ccccc2)s1)c1c(N)n(CCC)c(=O)[nH]c1=O | 24.1% |  | 0.92 µM [rising, partial curve, poor fit]
COCCN(CCOC)S(=O)(=O)c1ccc(C(=O)Nc2nnc(CSC)o2)cc1 | -70.8% | 20.6 µM [falling, single point] | 
CCCN(CC(=O)Nc1ccccc1OC)C(=O)c1cnc(Cl)c(Cl)c1 |  |  | 29.1 µM [falling, single point]
Nc1c(-c2cccc(Cl)c2)cnn1-c1cccc([N+](=O)[O-])c1 | 19.5% | 5.8 µM [rising, partial curve, poor fit] | 
COc1ccc(NC(=O)CCCn2nc(C)c3c(C)n(-c4ccccc4)nc3c2=O)cc1 | -23.4% |  | 1.84 µM [rising, partial curve, poor fit]
O=C(CN1CC(=O)Oc2ccccc21)OCC(=O)c1ccc(F)cc1 | -64.6% | 20.6 µM [falling, single point] | 
O=C(NC1CCCC1)C(c1ccco1)N(C(=O)c1ccco1)c1ccccc1 (stereo not given) | -8.97% |  | 29.1 µM [rising, single point]
CC(=O)Nc1ccccc1OCC(=O)NC(C)c1ccccc1 (stereo not given) | -3.21% |  | 0.13 µM [falling, full curve, poor fit]
CC1CC(=O)Nc2ccccc2N1C(=O)Nc1ccc(F)cc1F (stereo not given) | -7.79% |  | 2.59 µM [falling, full curve, poor fit]

Compound | cell number change | AC50 [1] | AC50 [2]
CN(C)Cc1ccccc1Sc1ccc(Br)cc1 | -16.5% |  | 0.013 µM [falling, full curve]
C=CCc1ccc(OCC(O)COc2ccc(CC=C)cc2OC)c(OC)c1 | -36.8% | 1.46 µM [falling, partial curve, poor fit] | 14.6 µM [falling, partial curve]
Cc1ccccc1OCC(=O)NC1=NCCS1 | 62.1% | 29.1 µM [rising, single point] | 
COc1cccc(-c2c(C(=O)N/N=C(\C)c3ccco3)nnn2-c2nonc2N)c1 | 25.4% |  | 
COc1ccc(-c2[nH]ncc2CN(C)C(C)c2ccon2)c(OC)c1 (stereo not given) | 26.2% |  | 3.66 µM [rising, partial curve, poor fit]
Cc1cc(C)cc(-c2nc(-c3ccncc3)no2)c1 | 56.5% | 2.59 µM [rising, full curve] | 2.91 µM [rising, full curve]
CCOc1nc(NC(=O)NS(=O)(=O)c2cccc(Cl)c2)nc(-c2ccccc2)n1 | 21.9% |  | 1.03 µM [rising, partial curve]
Cc1cccc(NC2(C(F)(F)F)N=C(c3ccccc3)NC2=O)n1 (stereo not given) | -3.19% |  | 14.6 µM [falling, single point]
Cc1ccc(S(=O)(=O)N2CCOCC2)cc1NC(=O)COc1ncnc2ccccc12 |  | 0.517 µM [rising, partial curve, poor fit] | 3.66 µM [falling, full curve, poor fit]
COc1ccc(-c2nc(CNS(=O)(=O)c3cc(OC)ccc3OC)cs2)cc1 | 170% |  | 9.2 µM [rising, partial curve]
Cc1ccc(S(=O)(=O)N(CC(=O)NCc2ccccc2Cl)C(=O)N2CCN(C)CC2)cc1 | -50% | 0.082 µM [falling, full curve, poor fit] | 
CCCN1Cc2cccc(C(=O)Nc3ccc(CN4CCCC4)cc3)c2C1=O | 17.4% |  | 2.31 µM [rising, partial curve, poor fit]
NNc1nc(Nc2ccccc2)nc(N2CCCCC2)n1 | 24.2% |  | 18.4 µM [rising, single point]
CCOC(=O)c1c(O)c2cccc3c2n(c1=O)CC3 | -2.88% | 1.16 µM [falling, full curve, poor fit] | 6.51 µM [falling, single point]
COCc1cc(S(=O)c2ccc(Cl)cc2)nc(C)n1 (stereo not given) | 2.76% | 4.61 µM [falling, single point] | 
Cc1ccc(N(CC(=O)NCc2ccccc2)C(=O)c2csnn2)c(C)c1 | 1.71% |  | 29.1 µM [rising, single point]
Cc1cc(C(=O)CSc2nnc(N)s2)c(C)n1-c1c(C)n(C)n(-c2ccccc2)c1=O | 62.8% | 32.6 µM [rising, single point] | 0.411 µM [falling, full curve]
CCOc1ccc(N2C(=O)CC(Sc3nnnn3-c3ccccc3)C2=O)cc1 (stereo not given) | -30.1% | 0.231 µM [falling, full curve, poor fit] | 0.651 µM [falling, full curve]
CNc1nc(NC)nc(-n2c(C(F)(F)F)nc3ccccc32)n1 | 22.8% | 0.731 µM [rising, full curve, poor fit] | 1.16 µM [rising, single point]

Compound | cell number change | AC50 [1] | AC50 [2]
CCN1CCN(c2ccc(S(=O)(=O)N3CCOCC3)cc2NC(=O)c2ccc(C)cc2C)CC1 | 1.25% |  | 20.6 µM [rising, partial curve]
O=C(O)c1ccc(N/N=C/C=C/c2ccccc2[N+](=O)[O-])cc1 | -22.9% |  | 
CC(NC(=O)c1ccccc1F)c1nnc(SCC(=O)Nc2nnc(C3CC3)s2)n1C (stereo not given) | -17.1% |  | 0.326 µM [falling, full curve, poor fit]
COc1ccc(S(=O)(=O)N2CCCCCC2)cc1C(=O)N(CC(C)C)C1CCS(=O)(=O)C1 (stereo not given) | -2.33% |  | 32.6 µM [rising, single point]
COc1ccc(C(=O)NC2CCN(CC(=O)Nc3c(C)cccc3C)CC2)cc1OC | 11.1% |  | 29.1 µM [rising, single point]
Brc1c(CSc2nnc(-c3ccco3)o2)nc2ccccn12 | 49.8% | 29.1 µM [rising, single point] | 29.1 µM [rising, single point]
O=C(CC(NS(=O)(=O)c1ccc(Cl)cc1)c1ccco1)NCc1ccco1 (stereo not given) | 0.251% |  | 
O=C(O)c1ccc(NCc2nc3ccccc3n2Cc2ccccc2)cc1 | 13.2% |  | 5.17 µM [rising, full curve, poor fit]
Cc1ccc(NC2=CC(=O)C(=O)c3ccccc32)c(C)c1 | 12.8% | 1.64 µM [falling, partial curve] | 
COc1cccc(CNC(=O)CCC2CCCN(C(=O)c3ccc(OC)c(F)c3)C2)c1 (stereo not given) | -35.2% | 8.2 µM [falling, partial curve] | 6.51 µM [falling, partial curve]
Cc1cccc(N(Cc2ccccc2)C(=O)c2cccc(S(=O)(=O)N3CC(C)OC(C)C3)c2)c1 (stereo not given) | 25% |  | 23.1 µM [falling, partial curve]
c1ccc(Nc2scc(-c3ccccc3)[n+]2Cc2ccco2)cc1 | 52% |  | 
O=C(NCc1ccc2c(c1)OCO2)C1CC(=O)N(c2ccc(Cl)cc2)C1 (stereo not given) | 8.26% |  | 6.51 µM [falling, single point]
CCCC[n+]1ccn(-c2nc3c([N+](=O)[O-])cccc3n2C)c1 | 25.6% |  | 
CC(NC(=O)c1cc2c(=O)n3ccccc3nc2n(CC2CCCO2)c1=N)c1ccccc1 (stereo not given) | 23.8% |  | 29.1 µM [rising, partial curve]
Cn1c(SCC(=O)N2CCOCC2)nc(O)cc1=O | -57.4% | 29.1 µM [falling, single point] | 29.1 µM [falling, single point]
Cc1ccnc(NS(=O)(=O)c2ccc(NS(=O)(=O)Cc3ccccc3)cc2)n1 | -43% | 29.1 µM [falling, single point] | 0.092 µM [falling, full curve, poor fit]
Cc1n[nH]c(C)c1N1C(=O)c2cccc3c(N4CCCCCC4)ccc(c23)C1=O | -104% | 2.59 µM [falling, full curve] | 6.51 µM [falling, partial curve]

Part of the list above, with tabs.
Compound	cell number change	AC50 [1]	AC50 [2]
CCN1CCCC1CNC(=O)Cn1cnc2ccc(S(=O)(=O)N3CCC(C)CC3)cc2c1=O (stereo not given)	-60.1%	23.1 µM [falling, single point]	
COc1ccc(Cl)c(OC)c1C(=O)NC(=O)Nc1c(F)cc(F)cc1F	-2.19%		0.517 µM [falling, single point]
CCn1c(SCC(=O)NC2CCCCC2C)nnc1-c1ccc(OC)cc1 (stereo not given)	-7.99%		
CC(NC(=O)c1ccccc1F)c1nnc(SCC(=O)NC2CCCCC2)n1C (stereo not given)			0.58 µM [falling, single point]
COCCN(C(=O)CSc1n[nH]c(-c2ccccc2)n1)c1c(N)n(Cc2ccccc2)c(=O)[nH]c1=O	-5.13%		5.17 µM [rising, single point]
COCCN(CCOC)S(=O)(=O)c1ccc(C(=O)Nc2nnc(CSC)o2)cc1	-70.8%	20.6 µM [falling, single point]	
O=C(CN1CC(=O)Oc2ccccc21)OCC(=O)c1ccc(F)cc1	-64.6%	20.6 µM [falling, single point]	
CCCN1Cc2cccc(C(=O)Nc3ccc(CN4CCCC4)cc3)c2C1=O	17.4%		2.31 µM [rising, partial curve, poor fit]
CCOC(=O)c1c(O)c2cccc3c2n(c1=O)CC3	-2.88%	1.16 µM [falling, full curve, poor fit]	6.51 µM [falling, single point]
Cc1ccc(N(CC(=O)NCc2ccccc2)C(=O)c2csnn2)c(C)c1	1.71%		29.1 µM [rising, single point]
CC(NC(=O)c1ccccc1F)c1nnc(SCC(=O)Nc2nnc(C3CC3)s2)n1C (stereo not given)	-17.1%		0.326 µM [falling, full curve, poor fit]
O=C(NCc1ccc2c(c1)OCO2)C1CC(=O)N(c2ccc(Cl)cc2)C1 (stereo not given)	8.26%		6.51 µM [falling, single point]

From PubChem BioAssay AID2685 (National Center for Advancing Translational Sciences (NCATS), 2010)
